For this series, the system named is human red blood cell (HRBC) membrane. In words: Human red blood cell (HRBC) membrane stabilization assay. In kind it is cell-based. The note with it: n = 6. The method, then:
The human red blood cell (HRBC) membrane stabilization method was employed to evaluate the anti-inflammatory activity of the compounds, as previously described. For test the in vitro anti-inflammatory activity of synthesized compounds (6e-h), blood samples were collected from healthy volunteers who had not taken NSAIDs for 14 days. The blood was mixed with an equal volume of sterilized Alsever’s solution, centrifuged at 3000 rpm, and the packed cells were washed with isotonic saline (0.9% w/v NaCl). A 10% cell suspension was then prepared using isotonic saline. The test compounds were dissolved in DMSO to prepare solutions at concentrations of 50, 100, 150, 200, and 250 μg/ml. For each concentration, a mixture containing 1 ml of phosphate buffer, 2 ml of hypotonic saline, and 0.5 ml of the HRBC suspension was prepared. The samples were incubated at 37°C for 30 minutes and centrifuged at 3000 rpm for 20 minutes. The hemoglobin content in the supernatant was determined spectrophotometrically at 560 nm. Indomethacin at the same concentrations (50–250 μg/ml) was used as the reference standard, and a control sample was prepared without the test compounds. The percentage hemolysis was calculated by considering the hemolysis in the control group as 100%. The percentage of HRBC membrane stabilization or protection was determined using the following formula:
percent protection=100−((OD of drug treated sample/OD of control) ×100).

As to `O=C(CCCOc1ccc(F)cc1)NNC(=O)C1CN(Cc2ccccc2)CCO1` (stereo not shown) [6e, 4-Benzyl-N’-(4-(4-fluorophenoxy)butanoyl)morpholine-2-carbohydrazide], the “Absorbance at 560nm” value was determined as 0.702 ± 0.001 (50 µg); 0.634 ± 0.002 (100 µg); 0.601 ± 0.007 (150 µg); 0.449 ± 0.004 (200 µg); 0.389 ± 0.002 (250 µg).
The corresponding values for `COc1ccc2c(c1)c(CC(=O)O)c(C)n2C(=O)c1ccc(Cl)cc1` [Indomethacin, reference compound] are 0.601 ± 0.003, 0.501 ± 0.001, 0.398 ± 0.001, 0.298 ± 0.002 and 0.188 ± 0.008.

The values above are taken from article PMC12469358, “Synthesis of novel phenoxyacetohydrazide compounds and evaluation therapeutic potential exhibit as anti-inflammatory and anti-angiogenic” (PLOS One, 2025).
